Reference: the supplement of paper PMC10849652
Some of the results follow.

The chains behind the UniProt entries cited, without tags or fusion partners. Where a name states a change or a piece, a line headed by the entry shows the natural chain unless it says otherwise.
UniProt Q6NVY1: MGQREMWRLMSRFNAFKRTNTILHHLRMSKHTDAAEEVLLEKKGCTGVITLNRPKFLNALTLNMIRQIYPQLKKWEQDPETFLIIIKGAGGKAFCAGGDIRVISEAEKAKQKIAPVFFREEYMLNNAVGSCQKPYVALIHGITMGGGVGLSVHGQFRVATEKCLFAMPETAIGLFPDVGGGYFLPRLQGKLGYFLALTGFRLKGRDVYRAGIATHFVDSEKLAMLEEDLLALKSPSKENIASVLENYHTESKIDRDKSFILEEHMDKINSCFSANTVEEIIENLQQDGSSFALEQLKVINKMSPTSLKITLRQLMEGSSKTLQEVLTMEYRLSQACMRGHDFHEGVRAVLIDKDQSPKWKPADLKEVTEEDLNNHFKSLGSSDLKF
UniProt P09651: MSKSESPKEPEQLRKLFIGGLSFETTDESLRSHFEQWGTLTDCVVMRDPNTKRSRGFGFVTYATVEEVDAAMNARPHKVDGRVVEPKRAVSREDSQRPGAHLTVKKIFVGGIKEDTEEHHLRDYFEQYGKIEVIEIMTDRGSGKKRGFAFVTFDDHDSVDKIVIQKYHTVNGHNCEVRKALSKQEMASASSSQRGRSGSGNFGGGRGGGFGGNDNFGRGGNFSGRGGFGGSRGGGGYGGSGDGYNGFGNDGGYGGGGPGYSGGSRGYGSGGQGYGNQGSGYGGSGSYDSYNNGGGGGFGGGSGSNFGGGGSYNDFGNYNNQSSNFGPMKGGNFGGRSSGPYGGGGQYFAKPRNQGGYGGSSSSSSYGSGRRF
UniProt Q01581: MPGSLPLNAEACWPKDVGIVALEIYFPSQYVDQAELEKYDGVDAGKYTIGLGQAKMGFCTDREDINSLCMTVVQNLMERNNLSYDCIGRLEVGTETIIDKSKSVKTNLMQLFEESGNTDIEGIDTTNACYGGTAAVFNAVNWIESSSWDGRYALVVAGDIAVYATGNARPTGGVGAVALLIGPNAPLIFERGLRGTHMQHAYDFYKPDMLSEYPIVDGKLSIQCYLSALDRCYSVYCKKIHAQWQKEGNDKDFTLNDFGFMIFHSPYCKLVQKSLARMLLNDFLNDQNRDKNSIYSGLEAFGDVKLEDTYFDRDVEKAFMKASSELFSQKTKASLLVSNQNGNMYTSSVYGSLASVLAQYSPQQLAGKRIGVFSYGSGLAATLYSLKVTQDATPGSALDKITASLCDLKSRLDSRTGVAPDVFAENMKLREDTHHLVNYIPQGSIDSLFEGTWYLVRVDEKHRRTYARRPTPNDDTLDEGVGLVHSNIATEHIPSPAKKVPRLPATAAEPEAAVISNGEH
UniProt Q14527: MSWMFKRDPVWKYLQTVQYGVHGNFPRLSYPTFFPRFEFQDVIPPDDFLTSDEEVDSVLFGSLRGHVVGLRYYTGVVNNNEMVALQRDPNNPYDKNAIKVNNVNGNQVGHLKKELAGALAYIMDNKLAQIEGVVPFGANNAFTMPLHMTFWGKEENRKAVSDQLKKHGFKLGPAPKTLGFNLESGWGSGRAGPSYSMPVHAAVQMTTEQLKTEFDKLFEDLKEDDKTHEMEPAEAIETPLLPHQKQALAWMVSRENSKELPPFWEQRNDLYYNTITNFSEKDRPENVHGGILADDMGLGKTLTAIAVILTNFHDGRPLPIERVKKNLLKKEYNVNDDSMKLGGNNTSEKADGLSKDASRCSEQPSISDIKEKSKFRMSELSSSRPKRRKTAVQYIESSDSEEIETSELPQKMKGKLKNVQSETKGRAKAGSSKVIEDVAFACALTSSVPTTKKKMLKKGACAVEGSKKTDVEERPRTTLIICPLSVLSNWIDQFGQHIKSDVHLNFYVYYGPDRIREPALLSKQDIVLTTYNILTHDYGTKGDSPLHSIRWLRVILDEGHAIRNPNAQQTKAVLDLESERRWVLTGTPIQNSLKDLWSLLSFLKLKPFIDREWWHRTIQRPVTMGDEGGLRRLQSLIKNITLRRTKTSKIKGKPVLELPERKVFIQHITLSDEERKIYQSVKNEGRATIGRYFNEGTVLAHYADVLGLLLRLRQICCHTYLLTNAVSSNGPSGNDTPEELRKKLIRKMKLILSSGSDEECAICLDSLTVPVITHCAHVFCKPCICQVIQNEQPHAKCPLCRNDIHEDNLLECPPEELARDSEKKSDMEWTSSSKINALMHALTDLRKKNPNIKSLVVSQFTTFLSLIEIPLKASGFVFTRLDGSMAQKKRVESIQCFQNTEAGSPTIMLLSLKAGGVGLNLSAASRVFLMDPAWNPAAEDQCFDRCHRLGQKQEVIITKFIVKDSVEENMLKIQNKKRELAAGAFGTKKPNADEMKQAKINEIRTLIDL
UniProt P11021: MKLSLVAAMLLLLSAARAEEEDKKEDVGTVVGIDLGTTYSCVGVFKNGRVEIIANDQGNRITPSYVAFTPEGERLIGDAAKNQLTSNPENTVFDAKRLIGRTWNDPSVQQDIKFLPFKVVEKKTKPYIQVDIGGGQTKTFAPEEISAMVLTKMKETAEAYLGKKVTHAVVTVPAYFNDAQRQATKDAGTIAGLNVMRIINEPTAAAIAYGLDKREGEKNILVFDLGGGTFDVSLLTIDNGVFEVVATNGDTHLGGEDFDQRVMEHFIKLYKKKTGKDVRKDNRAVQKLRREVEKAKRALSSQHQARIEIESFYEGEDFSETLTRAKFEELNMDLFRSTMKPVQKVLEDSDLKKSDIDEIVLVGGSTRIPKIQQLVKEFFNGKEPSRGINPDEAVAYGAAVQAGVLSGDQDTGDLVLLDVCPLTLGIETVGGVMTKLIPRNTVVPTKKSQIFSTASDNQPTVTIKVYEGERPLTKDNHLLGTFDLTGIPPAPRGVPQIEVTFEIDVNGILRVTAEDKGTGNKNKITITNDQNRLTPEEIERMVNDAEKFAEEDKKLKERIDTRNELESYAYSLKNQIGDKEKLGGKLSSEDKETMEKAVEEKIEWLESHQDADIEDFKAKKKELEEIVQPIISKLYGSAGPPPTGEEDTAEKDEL
UniProt O43464: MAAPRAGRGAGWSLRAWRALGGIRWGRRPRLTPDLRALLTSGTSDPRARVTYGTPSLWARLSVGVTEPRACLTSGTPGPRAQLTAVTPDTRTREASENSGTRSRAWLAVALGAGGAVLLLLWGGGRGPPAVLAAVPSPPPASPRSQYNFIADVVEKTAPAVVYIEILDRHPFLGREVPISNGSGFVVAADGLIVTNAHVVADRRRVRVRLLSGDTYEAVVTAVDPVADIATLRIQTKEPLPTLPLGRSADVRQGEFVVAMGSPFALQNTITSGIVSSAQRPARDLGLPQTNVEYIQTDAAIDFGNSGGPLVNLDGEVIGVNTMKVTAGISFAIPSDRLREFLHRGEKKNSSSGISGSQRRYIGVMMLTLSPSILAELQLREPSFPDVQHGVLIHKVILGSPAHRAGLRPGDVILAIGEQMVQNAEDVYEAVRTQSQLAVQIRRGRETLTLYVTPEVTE
UniProt P17096: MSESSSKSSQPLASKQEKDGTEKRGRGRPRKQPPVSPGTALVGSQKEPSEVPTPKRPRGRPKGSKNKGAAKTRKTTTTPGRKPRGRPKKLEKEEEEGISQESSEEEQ
UniProt Q9BX68: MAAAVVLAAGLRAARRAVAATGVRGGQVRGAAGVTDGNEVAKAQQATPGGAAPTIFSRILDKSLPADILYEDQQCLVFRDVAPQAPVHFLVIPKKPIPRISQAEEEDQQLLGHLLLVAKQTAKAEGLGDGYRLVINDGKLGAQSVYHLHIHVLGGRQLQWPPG
UniProt P31942: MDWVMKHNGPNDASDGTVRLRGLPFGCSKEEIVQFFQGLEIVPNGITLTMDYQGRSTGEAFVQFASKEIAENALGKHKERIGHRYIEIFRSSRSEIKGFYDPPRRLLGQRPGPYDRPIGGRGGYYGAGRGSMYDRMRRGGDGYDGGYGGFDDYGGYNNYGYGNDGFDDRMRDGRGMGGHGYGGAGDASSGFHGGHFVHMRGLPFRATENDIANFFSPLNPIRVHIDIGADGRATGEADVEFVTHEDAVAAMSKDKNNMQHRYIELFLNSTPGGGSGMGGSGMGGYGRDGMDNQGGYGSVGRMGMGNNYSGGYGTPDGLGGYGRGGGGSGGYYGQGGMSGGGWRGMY
UniProt Q14103: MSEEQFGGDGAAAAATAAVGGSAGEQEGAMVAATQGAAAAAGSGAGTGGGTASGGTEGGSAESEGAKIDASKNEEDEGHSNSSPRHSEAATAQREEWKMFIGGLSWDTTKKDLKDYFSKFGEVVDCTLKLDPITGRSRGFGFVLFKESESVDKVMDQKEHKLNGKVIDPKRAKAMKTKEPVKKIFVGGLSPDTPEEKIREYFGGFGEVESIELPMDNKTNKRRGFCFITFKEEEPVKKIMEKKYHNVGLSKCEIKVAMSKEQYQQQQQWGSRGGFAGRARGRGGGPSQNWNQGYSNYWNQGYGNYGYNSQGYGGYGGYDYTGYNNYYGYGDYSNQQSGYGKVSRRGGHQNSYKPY
UniProt O43719: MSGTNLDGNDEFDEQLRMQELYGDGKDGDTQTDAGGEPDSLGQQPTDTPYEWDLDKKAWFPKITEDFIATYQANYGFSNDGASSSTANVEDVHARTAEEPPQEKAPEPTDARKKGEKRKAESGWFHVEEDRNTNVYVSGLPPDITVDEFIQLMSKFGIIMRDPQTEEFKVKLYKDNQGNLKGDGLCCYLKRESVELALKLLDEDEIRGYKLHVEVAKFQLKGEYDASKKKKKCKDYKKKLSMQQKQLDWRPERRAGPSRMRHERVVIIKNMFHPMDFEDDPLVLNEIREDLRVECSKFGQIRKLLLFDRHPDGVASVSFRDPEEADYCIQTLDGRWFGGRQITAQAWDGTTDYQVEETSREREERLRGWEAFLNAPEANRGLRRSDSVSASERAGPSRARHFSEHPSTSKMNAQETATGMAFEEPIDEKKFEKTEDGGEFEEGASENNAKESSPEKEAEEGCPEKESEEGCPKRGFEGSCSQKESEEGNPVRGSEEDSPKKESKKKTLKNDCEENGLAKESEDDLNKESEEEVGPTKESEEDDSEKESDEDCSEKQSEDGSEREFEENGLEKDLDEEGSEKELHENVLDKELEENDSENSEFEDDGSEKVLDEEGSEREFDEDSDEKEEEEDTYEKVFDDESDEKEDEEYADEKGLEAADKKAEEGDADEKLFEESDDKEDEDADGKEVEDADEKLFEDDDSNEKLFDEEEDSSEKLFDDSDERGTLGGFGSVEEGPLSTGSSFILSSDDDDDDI
UniProt Q9BW71: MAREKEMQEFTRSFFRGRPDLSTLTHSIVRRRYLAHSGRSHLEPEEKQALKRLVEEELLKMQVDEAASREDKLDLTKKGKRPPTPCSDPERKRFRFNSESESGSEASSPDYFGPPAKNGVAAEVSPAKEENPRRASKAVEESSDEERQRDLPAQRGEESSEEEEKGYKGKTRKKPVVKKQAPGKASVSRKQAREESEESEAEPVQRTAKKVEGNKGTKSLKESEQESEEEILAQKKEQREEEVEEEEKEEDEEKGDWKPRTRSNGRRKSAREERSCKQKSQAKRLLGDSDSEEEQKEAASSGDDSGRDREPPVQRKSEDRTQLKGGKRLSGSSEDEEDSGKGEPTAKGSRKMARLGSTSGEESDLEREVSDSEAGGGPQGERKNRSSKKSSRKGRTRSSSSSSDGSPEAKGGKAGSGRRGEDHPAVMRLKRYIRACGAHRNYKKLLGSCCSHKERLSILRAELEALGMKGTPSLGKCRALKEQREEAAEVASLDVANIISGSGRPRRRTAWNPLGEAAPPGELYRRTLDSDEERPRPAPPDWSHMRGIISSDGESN
UniProt Q2TB90: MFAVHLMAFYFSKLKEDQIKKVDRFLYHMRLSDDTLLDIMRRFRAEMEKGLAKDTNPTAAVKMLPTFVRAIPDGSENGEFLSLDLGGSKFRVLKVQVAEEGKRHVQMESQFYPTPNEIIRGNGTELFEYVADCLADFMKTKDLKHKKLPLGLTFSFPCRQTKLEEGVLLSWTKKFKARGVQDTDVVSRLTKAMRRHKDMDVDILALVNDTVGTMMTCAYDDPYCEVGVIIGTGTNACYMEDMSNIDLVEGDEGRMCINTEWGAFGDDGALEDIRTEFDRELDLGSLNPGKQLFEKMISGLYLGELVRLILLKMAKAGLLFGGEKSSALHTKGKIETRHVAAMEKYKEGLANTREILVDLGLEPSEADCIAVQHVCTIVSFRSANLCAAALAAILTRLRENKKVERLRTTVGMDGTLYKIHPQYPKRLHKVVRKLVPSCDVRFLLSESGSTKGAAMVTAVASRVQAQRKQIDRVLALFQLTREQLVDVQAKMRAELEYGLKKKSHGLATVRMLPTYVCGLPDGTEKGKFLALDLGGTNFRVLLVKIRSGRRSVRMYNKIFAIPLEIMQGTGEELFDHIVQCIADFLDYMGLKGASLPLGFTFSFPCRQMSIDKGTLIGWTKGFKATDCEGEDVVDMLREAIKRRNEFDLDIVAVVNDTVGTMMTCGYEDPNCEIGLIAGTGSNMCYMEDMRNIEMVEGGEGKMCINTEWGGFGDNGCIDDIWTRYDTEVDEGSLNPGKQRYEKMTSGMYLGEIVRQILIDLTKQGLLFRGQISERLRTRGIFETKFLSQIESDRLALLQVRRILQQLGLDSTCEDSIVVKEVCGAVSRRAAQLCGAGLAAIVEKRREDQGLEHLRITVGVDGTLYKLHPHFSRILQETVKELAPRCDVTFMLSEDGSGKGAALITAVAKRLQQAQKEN

compound: Cc1ncc(-c2ccnc(Nc3ccc(S(C)(=O)=O)cc3)n2)n1C(C)C; assay: log2 fold change, soluble protein after heating vs DMSO (PISA); higher = thermal stabilisation; K562 cells, 10 uM, 30 min; active = over 0.2 and 3.5 SD of the protein, either way, in both replicates (recomputed)
Outline: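 Thermal stability values are relative to control samples and come from duplicates. They are expressed as log2 fold changes. For measurement, K562 cells (2×10^6 cells/mL) received 10 μM compound for 30 min, and aliquots were heated for 3 min over 48°C-58°C, pooled, and extracted at 4°C in PBS with 0.5% NP-40. Soluble protein, the supernatant after 21,000xg for 90 min, was quantified by TMTpro 16plex LC-MS/MS with equalised channel sums.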

log2 fold change, inactive:
HNRNPK isoform 2 (UniProt P61978) -0.136
HNRNPU (UniProt Q00839) 0.073
HSPA13 (UniProt P48723) -0.009
HNRNPR isoform 2 (UniProt O43390) 0.001
HIST2H3A (UniProt Q71DI3) -0.032
HIBCH (UniProt Q6NVY1) -0.019
HNRNPA1 (UniProt P09651) 0.16
HMOX2 (UniProt P30519) -0.006
HOOK3 (UniProt Q86VS8) 0.009
HIBADH (UniProt P31937) -0.021
HMGN4 (UniProt O00479) 0.095
HIC2 (UniProt Q96JB3) -0.181
HMGCS1 (UniProt Q01581) -0.024
HLTF (UniProt Q14527) 0.015
HSPA1L (UniProt P34931) 0.058
HSPA5 (UniProt P11021) -0.071
HSPA9 (UniProt P38646) -0.013
HTRA2 (UniProt O43464) -0.006
HMGA1 (UniProt P17096) -0.053
HSPB1 (UniProt P04792) 0
HINT2 (UniProt Q9BX68) -0.103
HNRNPH3 (UniProt P31942) -0.004
HNRNPD (UniProt Q14103) 0.083
HNRNPA3 (UniProt P51991) 0.21
HMGB3 (UniProt O15347) 0.03
HTATSF1 (UniProt O43719) -0.066
HGH1 (UniProt Q9BTY7) -0.006
HIRIP3 (UniProt Q9BW71) -0.015
HYPK (UniProt Q9NX55) -0.01
HNRNPDL (UniProt O14979) 0.136
HSPBP1 isoform 3 (UniProt Q9NZL4) -0.017
HKDC1 (UniProt Q2TB90) -0.028
HNRNPUL1 (UniProt Q9BUJ2) 0.041

Two successive entries from above, for reference:
log2 fold change, inactive:
HNRNPU (UniProt Q00839) 0.073
HSPA13 (UniProt P48723) -0.009
